# Laboratory results taken from the supplement of paper PMC10849652.
# Chains of the proteins cited; added tags and fusions are not shown. Lines headed by an entry give the natural chain unless they say otherwise; changes in a name come on top.
# UniProt Q96IU4: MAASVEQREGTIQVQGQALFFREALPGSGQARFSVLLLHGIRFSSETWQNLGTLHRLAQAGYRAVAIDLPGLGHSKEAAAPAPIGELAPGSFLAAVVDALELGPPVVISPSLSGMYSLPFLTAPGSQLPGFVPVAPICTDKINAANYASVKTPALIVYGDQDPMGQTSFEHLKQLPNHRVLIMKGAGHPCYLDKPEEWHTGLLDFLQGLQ
# UniProt Q15067: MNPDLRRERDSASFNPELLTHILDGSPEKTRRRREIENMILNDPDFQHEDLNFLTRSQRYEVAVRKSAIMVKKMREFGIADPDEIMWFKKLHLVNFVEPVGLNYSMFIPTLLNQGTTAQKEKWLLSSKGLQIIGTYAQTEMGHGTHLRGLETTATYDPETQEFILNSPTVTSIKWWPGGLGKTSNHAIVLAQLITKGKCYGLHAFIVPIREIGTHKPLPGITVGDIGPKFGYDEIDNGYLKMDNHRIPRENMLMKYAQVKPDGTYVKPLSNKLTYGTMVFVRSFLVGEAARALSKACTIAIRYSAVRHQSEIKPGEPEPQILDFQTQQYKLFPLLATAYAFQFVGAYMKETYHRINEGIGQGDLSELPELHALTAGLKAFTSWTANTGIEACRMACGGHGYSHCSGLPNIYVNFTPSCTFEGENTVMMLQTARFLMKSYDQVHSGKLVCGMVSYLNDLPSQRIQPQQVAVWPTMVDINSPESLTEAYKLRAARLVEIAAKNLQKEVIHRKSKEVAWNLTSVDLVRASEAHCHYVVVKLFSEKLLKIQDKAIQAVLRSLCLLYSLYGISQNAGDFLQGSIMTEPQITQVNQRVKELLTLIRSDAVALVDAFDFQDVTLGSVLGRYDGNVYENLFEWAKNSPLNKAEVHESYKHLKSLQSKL
# UniProt Q8NE71: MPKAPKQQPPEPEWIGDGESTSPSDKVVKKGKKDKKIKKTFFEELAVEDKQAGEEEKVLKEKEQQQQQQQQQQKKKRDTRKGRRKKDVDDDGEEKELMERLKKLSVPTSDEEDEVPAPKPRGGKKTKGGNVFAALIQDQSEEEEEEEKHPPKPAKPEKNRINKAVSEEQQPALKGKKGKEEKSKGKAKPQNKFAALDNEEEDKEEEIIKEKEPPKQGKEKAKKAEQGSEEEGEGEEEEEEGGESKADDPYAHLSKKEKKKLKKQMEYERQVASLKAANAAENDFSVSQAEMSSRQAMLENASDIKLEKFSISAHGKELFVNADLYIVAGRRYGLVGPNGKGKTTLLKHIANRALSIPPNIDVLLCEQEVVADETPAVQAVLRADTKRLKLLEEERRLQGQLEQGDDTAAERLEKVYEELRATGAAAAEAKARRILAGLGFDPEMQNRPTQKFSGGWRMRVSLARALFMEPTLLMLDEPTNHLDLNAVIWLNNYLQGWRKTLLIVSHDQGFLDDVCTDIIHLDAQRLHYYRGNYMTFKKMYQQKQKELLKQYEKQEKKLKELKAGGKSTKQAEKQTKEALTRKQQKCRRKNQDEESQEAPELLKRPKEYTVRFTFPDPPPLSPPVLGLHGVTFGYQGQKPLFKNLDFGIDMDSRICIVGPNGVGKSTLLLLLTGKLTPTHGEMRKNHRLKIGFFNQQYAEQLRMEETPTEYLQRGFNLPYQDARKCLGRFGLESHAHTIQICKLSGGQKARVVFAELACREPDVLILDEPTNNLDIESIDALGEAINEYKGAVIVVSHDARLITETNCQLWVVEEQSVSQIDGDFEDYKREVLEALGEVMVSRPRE
# UniProt Q562R1, whole entry, looked up: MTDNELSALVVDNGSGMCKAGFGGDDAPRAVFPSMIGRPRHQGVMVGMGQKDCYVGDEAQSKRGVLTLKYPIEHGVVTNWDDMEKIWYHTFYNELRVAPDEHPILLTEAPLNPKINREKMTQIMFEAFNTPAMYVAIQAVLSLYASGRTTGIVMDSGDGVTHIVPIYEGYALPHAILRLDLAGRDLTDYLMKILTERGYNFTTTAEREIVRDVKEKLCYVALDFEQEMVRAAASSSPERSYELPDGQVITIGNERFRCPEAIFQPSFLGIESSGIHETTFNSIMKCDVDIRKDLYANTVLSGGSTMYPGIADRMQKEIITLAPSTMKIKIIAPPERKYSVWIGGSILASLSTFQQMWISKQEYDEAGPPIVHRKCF
# UniProt Q9NUJ1: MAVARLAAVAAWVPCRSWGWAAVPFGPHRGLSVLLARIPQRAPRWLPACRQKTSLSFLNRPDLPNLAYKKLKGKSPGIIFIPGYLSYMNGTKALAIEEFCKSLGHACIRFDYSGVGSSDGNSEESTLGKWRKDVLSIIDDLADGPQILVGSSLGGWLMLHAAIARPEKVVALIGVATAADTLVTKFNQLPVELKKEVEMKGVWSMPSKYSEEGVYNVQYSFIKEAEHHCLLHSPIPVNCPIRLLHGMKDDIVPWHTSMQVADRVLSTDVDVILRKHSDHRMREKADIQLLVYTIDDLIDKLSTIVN
# UniProt P24666: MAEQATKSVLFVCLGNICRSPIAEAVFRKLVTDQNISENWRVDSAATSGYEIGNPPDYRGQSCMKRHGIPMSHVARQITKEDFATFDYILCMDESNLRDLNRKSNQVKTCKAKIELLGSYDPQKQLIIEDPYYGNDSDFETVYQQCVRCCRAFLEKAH
# UniProt O14734: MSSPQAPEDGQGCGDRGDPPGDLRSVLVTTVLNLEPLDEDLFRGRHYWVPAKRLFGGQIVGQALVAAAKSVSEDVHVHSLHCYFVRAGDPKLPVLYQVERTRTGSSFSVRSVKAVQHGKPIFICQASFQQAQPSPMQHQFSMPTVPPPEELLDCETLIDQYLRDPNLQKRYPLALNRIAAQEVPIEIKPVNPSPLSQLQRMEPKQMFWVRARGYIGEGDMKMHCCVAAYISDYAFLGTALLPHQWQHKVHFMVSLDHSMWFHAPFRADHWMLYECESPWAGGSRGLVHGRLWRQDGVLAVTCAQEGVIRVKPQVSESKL
# UniProt P33121: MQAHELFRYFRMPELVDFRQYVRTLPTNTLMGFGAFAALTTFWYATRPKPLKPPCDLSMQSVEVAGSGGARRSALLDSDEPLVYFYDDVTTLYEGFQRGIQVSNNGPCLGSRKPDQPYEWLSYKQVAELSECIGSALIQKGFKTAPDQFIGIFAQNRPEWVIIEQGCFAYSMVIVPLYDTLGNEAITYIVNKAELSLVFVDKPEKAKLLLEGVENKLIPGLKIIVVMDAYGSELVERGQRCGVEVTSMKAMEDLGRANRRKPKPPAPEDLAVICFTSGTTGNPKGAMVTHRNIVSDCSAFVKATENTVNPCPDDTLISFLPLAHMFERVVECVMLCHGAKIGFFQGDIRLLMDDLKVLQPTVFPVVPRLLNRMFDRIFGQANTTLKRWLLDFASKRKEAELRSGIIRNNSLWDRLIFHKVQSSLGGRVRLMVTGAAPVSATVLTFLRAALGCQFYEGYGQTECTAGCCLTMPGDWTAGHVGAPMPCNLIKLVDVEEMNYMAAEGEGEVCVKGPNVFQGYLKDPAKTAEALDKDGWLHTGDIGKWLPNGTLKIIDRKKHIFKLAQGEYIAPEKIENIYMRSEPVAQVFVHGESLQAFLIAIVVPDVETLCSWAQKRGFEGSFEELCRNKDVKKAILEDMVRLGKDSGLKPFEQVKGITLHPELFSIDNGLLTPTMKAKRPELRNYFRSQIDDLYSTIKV
# UniProt Q5VST6: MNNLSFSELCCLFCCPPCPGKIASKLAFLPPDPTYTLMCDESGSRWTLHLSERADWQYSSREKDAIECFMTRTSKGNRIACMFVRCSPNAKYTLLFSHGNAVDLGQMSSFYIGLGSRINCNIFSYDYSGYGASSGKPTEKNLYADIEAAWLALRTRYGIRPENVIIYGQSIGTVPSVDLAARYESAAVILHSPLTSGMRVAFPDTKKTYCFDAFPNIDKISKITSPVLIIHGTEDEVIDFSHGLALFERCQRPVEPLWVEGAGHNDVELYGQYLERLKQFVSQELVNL
# UniProt Q53FZ2: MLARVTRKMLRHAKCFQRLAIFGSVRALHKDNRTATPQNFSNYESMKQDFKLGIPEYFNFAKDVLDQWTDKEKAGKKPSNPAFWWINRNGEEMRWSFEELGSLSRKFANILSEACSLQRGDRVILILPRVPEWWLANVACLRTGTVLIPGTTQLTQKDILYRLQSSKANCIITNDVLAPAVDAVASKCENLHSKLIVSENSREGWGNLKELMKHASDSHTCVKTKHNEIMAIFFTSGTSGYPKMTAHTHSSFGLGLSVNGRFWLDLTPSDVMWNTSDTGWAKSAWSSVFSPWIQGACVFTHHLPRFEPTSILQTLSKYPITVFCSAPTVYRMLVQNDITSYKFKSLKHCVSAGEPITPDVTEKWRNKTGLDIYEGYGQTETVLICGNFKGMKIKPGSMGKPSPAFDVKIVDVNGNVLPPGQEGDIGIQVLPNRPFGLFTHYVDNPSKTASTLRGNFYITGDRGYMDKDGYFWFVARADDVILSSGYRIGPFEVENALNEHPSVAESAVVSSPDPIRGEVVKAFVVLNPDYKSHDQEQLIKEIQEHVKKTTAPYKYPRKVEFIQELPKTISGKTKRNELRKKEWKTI
# UniProt Q9H845: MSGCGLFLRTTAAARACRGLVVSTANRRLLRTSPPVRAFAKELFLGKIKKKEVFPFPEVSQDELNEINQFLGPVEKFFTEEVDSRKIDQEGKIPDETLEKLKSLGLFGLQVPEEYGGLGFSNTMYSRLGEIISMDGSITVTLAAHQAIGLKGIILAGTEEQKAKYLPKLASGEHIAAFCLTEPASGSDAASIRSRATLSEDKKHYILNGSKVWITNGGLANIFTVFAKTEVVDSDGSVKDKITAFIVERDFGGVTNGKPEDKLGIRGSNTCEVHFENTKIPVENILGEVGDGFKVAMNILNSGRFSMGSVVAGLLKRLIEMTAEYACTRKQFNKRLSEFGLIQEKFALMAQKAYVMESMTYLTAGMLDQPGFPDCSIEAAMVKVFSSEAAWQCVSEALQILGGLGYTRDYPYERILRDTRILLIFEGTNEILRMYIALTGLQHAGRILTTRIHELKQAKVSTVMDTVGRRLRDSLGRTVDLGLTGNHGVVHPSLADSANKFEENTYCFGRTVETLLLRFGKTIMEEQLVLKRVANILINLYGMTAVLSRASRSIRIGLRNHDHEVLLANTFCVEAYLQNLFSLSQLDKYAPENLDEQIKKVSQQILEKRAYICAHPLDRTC
# UniProt O60488: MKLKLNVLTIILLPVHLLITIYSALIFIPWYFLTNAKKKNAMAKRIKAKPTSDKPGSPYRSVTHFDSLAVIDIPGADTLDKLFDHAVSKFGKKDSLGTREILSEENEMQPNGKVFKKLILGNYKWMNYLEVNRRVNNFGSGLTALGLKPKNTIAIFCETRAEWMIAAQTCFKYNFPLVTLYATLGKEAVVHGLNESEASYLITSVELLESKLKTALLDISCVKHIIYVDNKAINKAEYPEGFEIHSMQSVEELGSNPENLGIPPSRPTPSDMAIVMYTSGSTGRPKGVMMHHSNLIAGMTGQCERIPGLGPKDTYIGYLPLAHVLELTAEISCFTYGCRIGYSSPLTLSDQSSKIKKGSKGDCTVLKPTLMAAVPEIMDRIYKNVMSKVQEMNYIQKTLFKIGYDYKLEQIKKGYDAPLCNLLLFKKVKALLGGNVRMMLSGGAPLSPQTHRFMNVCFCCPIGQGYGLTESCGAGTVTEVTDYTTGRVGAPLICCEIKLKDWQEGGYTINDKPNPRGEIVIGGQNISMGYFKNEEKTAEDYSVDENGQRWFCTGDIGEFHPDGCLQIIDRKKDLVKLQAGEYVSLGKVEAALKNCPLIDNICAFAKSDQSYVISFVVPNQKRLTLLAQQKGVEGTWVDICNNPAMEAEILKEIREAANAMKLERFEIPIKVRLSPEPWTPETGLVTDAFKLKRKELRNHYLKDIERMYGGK
# UniProt Q8NFV4: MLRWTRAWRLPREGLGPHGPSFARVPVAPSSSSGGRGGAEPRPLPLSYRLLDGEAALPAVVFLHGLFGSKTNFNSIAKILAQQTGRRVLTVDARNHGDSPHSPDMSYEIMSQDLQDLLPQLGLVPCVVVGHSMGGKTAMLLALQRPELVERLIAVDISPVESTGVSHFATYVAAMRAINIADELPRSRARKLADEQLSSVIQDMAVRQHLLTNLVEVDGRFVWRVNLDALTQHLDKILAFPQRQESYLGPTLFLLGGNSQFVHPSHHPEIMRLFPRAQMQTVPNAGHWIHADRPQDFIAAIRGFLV
# UniProt P07311: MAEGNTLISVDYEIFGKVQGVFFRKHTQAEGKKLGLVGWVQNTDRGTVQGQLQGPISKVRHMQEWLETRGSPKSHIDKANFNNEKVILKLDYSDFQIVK
# UniProt Q9NZ32, whole entry, looked up: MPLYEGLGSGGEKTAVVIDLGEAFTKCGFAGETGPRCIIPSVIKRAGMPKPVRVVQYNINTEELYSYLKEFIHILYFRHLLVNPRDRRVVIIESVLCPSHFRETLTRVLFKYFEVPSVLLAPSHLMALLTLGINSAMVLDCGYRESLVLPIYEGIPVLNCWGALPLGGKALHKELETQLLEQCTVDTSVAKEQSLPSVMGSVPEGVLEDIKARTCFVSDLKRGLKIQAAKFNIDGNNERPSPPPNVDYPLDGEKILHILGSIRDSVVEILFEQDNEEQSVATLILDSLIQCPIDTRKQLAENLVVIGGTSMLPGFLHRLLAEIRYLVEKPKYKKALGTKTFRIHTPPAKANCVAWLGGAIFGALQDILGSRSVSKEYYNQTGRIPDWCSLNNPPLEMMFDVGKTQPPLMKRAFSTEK
# The list shows a part of the results.
# How the values were obtained:
# Experiment in all cases: log2 fold change, soluble protein after heating vs DMSO (PISA); higher = thermal stabilisation; K562 cells, 10 uM, 30 min; active = over 0.2 and 3.5 SD of the protein, either way, in both replicates (recomputed)
# erlotinib = compound: C#Cc1cccc(Nc2ncnc3cc(OCCOC)c(OCCOC)cc23)c1 [erlotinib]
# Method in brief: (§1)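 K562 cells at 2×10^6 cells/mL were given 10 μM compound for 30 min. Aliquots then went through 3 min of heating across 48°C-58°C, were pooled, and were extracted in PBS with 0.5% NP-40 at 4°C, and the supernatant after 21,000xg for 90 min was quantified by TMTpro 16plex LC-MS/MS with channel sums equalised. Thermal stability relative to control samples, from duplicates, is given as log2 fold change.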
# [1] = compound: C/C(=N\NC(=O)C1=CC(=CC=C1)S(=O)(=O)N2CCOCC2)/C3=C(C=CC(=C3)Cl)O
# Method in brief: as §1
# [2] = compound: C1=CC(=C(C=C1Cl)C2=NC3=NC=CN=C3C(=N2)NC4=CC=NC=C4)F
# Method in brief: as §1
# [3] = compound: C1=CC(=CC=C1C2=NC3=C(N2)C=C(C=C3)C(=O)N)OC4=CC=C(C=C4)Cl
# Method in brief: as §1
# [4] = compound: C1=CC2=C(C=CC(=C2)/C=C\3/C(=O)NC(=NCC4=CC=CS4)S3)N=C1
# Method in brief: as §1
# [5] = compound: C1=CC2=NC=CN=C2C=C1/C=C/3\C(=O)NC(=O)S3
# Method in brief: as §1
# [6] = compound: C1=CC=C(C=C1)C2=NC(=C(N2)C3=CC=NC=C3)C4=CC(=C(C=C4)Cl)O
# Method in brief: as §1
# [7] = compound: C1=CC=C2C(=C1)C3=NNC4=CC=CC(=C43)C2=O
# Method in brief: as §1
# [8] = compound: C1CCN(C1)C(=O)NC2=CC=CC(=C2)NC3=NC=C(C(=N3)NCCC4=CN=CN4)Br
# Method in brief: as §1
# [9] = compound: C1CN(CCC1(CC2=CC=C(C=C2)Cl)N)C3=NC=NC4=C3C=CN4
# Method in brief: as §1
Target,log2 fold change (erlotinib),log2 fold change [1],log2 fold change [2],log2 fold change [3],log2 fold change [4],log2 fold change [5],log2 fold change [6],log2 fold change [7],log2 fold change [8],log2 fold change [9]
ABCD4 (UniProt O14678),inactive: 0.016,inactive: 0.103,inactive: 0.043,inactive: 0.066,inactive: 0.136,inactive: -0.124,inactive: 0.084,inactive: -0.022,inactive: -0.092,inactive: 0.184
ABHD14B (UniProt Q96IU4),inactive: -0.036,inactive: 0.094,inactive: 0.043,inactive: -0.007,inactive: 0.039,inactive: 0.007,inactive: 0.077,inactive: -0.006,inactive: -0.025,inactive: 0.06
ACOX1 isoform 2 (UniProt Q15067),inactive: 0.004,inactive: 0.003,inactive: 0.069,inactive: -0.005,inactive: 0,inactive: 0.036,inactive: 0.072,inactive: -0.011,inactive: -0.006,inactive: 0.009
ABCF1 (UniProt Q8NE71),inactive: -0.03,inactive: -0.054,inactive: -0.227,inactive: 0.032,inactive: -0.05,inactive: -0.006,inactive: -0.049,inactive: 0.025,inactive: -0.015,inactive: -0.162
ACTR1B (UniProt P42025),inactive: -0.13,inactive: -0.048,inactive: -0.145,inactive: 0.041,inactive: 0.02,inactive: 0.002,inactive: -0.037,inactive: -0.017,inactive: -0.02,inactive: 0.011
ACTR2 (UniProt P61160),inactive: 0.003,inactive: 0.001,inactive: 0.028,inactive: -0.062,inactive: 0.013,inactive: 0.008,inactive: 0.011,inactive: 0.001,inactive: -0.01,inactive: 0.001
ACTBL2 (UniProt Q562R1),inactive: -0.247,inactive: -0.805,inactive: 0.093,inactive: 0.025,inactive: -0.419,inactive: -0.215,inactive: 0.047,inactive: 0.147,,
ABHD10 (UniProt Q9NUJ1),inactive: -0.079,inactive: -0.03,inactive: 0.071,inactive: 0.03,inactive: 0.032,inactive: 0.068,inactive: 0.021,inactive: -0.064,inactive: 0.045,inactive: 0.024
ACACA isoform 4 (UniProt Q13085),inactive: 0.062,inactive: 0.065,inactive: -0.138,inactive: -0.018,inactive: 0.105,inactive: -0.053,inactive: 0.099,inactive: 0.037,inactive: -0.079,inactive: -0.172
ACP1 isoform 2 (UniProt P24666),inactive: 0.072,inactive: 0.011,inactive: 0.038,inactive: 0.024,inactive: 0.029,inactive: -0.008,inactive: -0.018,inactive: 0,inactive: 0.004,inactive: -0.039
ACOT8 (UniProt O14734),inactive: 0.033,inactive: 0.006,inactive: 0.075,inactive: 0.026,inactive: 0.061,inactive: 0.033,inactive: -0.014,inactive: -0.031,inactive: -0.001,inactive: 0.08
ACSL1 (UniProt P33121),inactive: -0.015,inactive: 0.067,inactive: 0.017,inactive: 0.03,inactive: 0.005,inactive: 0.018,inactive: 0.057,inactive: 0.016,inactive: -0.021,inactive: 0.002
ABHD17B (UniProt Q5VST6),inactive: 0.016,inactive: -0.029,inactive: -0.021,inactive: -0.018,inactive: 0.034,inactive: -0.048,inactive: 0,inactive: 0.041,inactive: -0.033,inactive: 0
ABCD3 (UniProt P28288),inactive: -0.025,inactive: 0.016,inactive: -0.001,inactive: 0.018,inactive: 0.049,inactive: 0.048,inactive: 0.026,inactive: -0.018,inactive: -0.005,inactive: 0.024
ACSM3 (UniProt Q53FZ2),inactive: 0.078,inactive: 0.01,inactive: 0.076,inactive: -0.235,inactive: 0.088,inactive: -0.009,inactive: -0.078,inactive: -0.072,inactive: 0.009,inactive: 0.01
AAGAB (UniProt Q6PD74),inactive: 0.251,inactive: 0.088,inactive: 0.079,inactive: -0.068,inactive: -0.059,inactive: 0.027,inactive: 0.066,inactive: 0.01,inactive: 0.067,inactive: 0.054
ABCA4 (UniProt P78363),inactive: 0.191,inactive: -0.367,inactive: 0.107,inactive: -0.151,inactive: 0.062,inactive: -0.073,inactive: 0.042,inactive: 0.044,inactive: 0.033,inactive: 0.145
ABCC5 (UniProt O15440),inactive: -0.027,inactive: 0.035,inactive: 0.064,inactive: -0.004,inactive: 0.059,inactive: -0.048,inactive: -0.014,inactive: -0.071,inactive: -0.037,inactive: 0.129
ABL1 isoform 2 (UniProt P00519),inactive: 0.096,inactive: -0.022,inactive: -0.107,inactive: -0.102,inactive: -0.079,inactive: 0.066,inactive: -0.094,inactive: 0.101,inactive: -0.162,inactive: -0.077
ABCB7 isoform 2 (UniProt O75027),inactive: -0.028,inactive: 0.014,inactive: 0.089,inactive: -0.035,inactive: 0.044,inactive: 0.023,inactive: 0.11,inactive: -0.007,inactive: 0.012,inactive: 0.062
ADAT3 (UniProt Q96EY9),inactive: -0.001,inactive: 0.026,inactive: -0.008,inactive: -0.04,inactive: 0.027,inactive: 0.002,inactive: -0.019,inactive: -0.007,inactive: 0.005,inactive: 0.054
ACAD9 (UniProt Q9H845),inactive: -0.002,inactive: 0.025,inactive: 0.054,inactive: 0.015,inactive: 0.035,inactive: 0.032,inactive: 0.026,inactive: -0.002,inactive: -0.002,inactive: 0.029
ACSL4 (UniProt O60488),inactive: 0.16,inactive: 0.02,inactive: -0.021,active: 0.727,inactive: 0.13,inactive: 0.024,inactive: 0.226,active: 0.357,inactive: -0.058,inactive: -0.002
ACLY isoform 2 (UniProt P53396),inactive: -0.01,inactive: 0.055,inactive: 0.033,inactive: -0.016,inactive: -0.123,inactive: -0.133,inactive: 0.027,inactive: 0.067,inactive: -0.018,inactive: -0.082
ABHD11 (UniProt Q8NFV4),inactive: 0.03,inactive: -0.041,inactive: 0.078,inactive: -0.033,inactive: 0.113,inactive: -0.067,inactive: 0.045,inactive: 0.043,inactive: -0.079,inactive: 0.01
ABCE1 (UniProt P61221),inactive: -0.011,inactive: -0.02,inactive: 0.047,inactive: -0.006,inactive: -0.029,inactive: 0.022,inactive: -0.018,inactive: -0.007,inactive: 0.012,inactive: 0.018
ACYP1 (UniProt P07311),inactive: 0.021,inactive: 0.067,inactive: 0,inactive: -0.034,inactive: 0.039,inactive: 0.004,inactive: 0.073,inactive: 0.023,inactive: 0.024,inactive: -0.006
AASDHPPT (UniProt Q9NRN7),inactive: -0.054,inactive: 0.052,inactive: 0.032,inactive: 0.002,inactive: -0.025,inactive: 0.035,inactive: -0.027,inactive: 0.005,inactive: -0.004,inactive: -0.021
ABHD17A isoform 2 (UniProt Q96GS6),inactive: 0,inactive: -0.011,inactive: -0.028,inactive: 0.223,inactive: 0.035,inactive: 0.042,inactive: 0.017,inactive: 0.008,inactive: -0.068,inactive: 0.11
ACTR10 (UniProt Q9NZ32),inactive: 0.003,inactive: 0.014,inactive: -0.021,inactive: -0.027,inactive: 0.025,inactive: 0.047,inactive: -0.014,inactive: -0.028,inactive: 0.055,inactive: -0.037

# Full records from above. Values in the order: log2 fold change (erlotinib) | log2 fold change [1] | log2 fold change [2] | log2 fold change [3] | log2 fold change [4] | log2 fold change [5] | log2 fold change [6] | log2 fold change [7] | log2 fold change [8] | log2 fold change [9]
# ACLY isoform 2 (UniProt P53396) as listed: inactive: -0.01 | inactive: 0.055 | inactive: 0.033 | inactive: -0.016 | inactive: -0.123 | inactive: -0.133 | inactive: 0.027 | inactive: 0.067 | inactive: -0.018 | inactive: -0.082
# ACP1 isoform 2 (UniProt P24666) as listed: inactive: 0.072 | inactive: 0.011 | inactive: 0.038 | inactive: 0.024 | inactive: 0.029 | inactive: -0.008 | inactive: -0.018 | inactive: 0 | inactive: 0.004 | inactive: -0.039
